# Results deposited as PubChem BioAssay AID743121 (NCATS, 2013).
# Screen: 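Knock-downs that sensitise breast cancer cells to camptothecin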 (primary screen)
# Cell system: MDA-MB-231 cells, a human breast cancer line
# Reagent: single siRNA against human genes, 20 nM siRNA (0.8 pmol per well)
# Time to read-out: 120 h (drug added 48 h after transfection, read 72 h later)
# Challenge: camptothecin 20 nM (about EC30) for 72 h; vehicle 0.1% DMSO in parallel plates
# Measured: 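Cell viability by ATP luminescence (CellTiter-Glo) as % of non-targeting siRNA wells, and the log2 ratio of viability without drug over viability with camptothecin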
# Direction: log2 vehicle/camptothecin viability: higher = stronger sensitisation to camptothecin; viability with camptothecin and viability without drug: higher = more viable cells
# Active means: 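Each gene scored by redundant siRNA activity (RSA) over its individual siRNA ratios; a gene is called active at p < 0.001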
# This is an unselected part of about 26,000 deposited reagents. 167 of all reagents (0.63%) were called active. 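Calls are per gene from RSA p-values that are not deposited; an individual active-marked siRNA can sensitise only weakly.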 Reagents against one gene are numbered here. No sequences are given here.
target gene,reagent no.,log2 vehicle/camptothecin viability,viability with camptothecin (% of control),viability without drug (% of control),Call
PFN1,1,-0.42,63.9,47.8,inactive
PFN1,2,-0.422,50.7,37.8,inactive
PFN1,3,-0.651,86.5,55.1,inactive
PFN1,4,0.0892,39.1,41.6,inactive
RAET1G,1,0.133,37.8,41.4,inactive
RAET1G,2,0.173,65.5,73.9,inactive
RAET1G,3,-0.509,63.9,44.9,inactive
ZNRF1,1,0.0351,58.1,59.5,inactive
ZNRF1,2,0.482,24,33.5,inactive
ZNRF1,3,0.0827,17.9,18.9,inactive
ZNRF1,4,-0.697,36.4,22.5,inactive
PTPRF,1,-0.16,58.5,52.4,inactive
PTPRF,2,-0.551,69.8,47.7,inactive
PTPRF,3,-0.0813,111,105,inactive
PTPRF,4,-0.619,91.2,59.4,inactive
MPZ,1,-0.0347,59.6,58.1,inactive
MPZ,2,-0.0991,89.7,83.7,inactive
MPZ,3,-0.0669,101,96.6,inactive
MPZ,4,0.169,67.1,75.5,inactive
TUBB7P,1,0.453,47,64.3,inactive
TUBB7P,2,-0.0952,96.5,90.4,inactive
TUBB7P,3,0.146,73.5,81.4,inactive
TUBB7P,4,-0.49,78.1,55.6,inactive
ANGPTL1,1,-0.491,89.1,63.4,inactive
ANGPTL1,2,-0.0891,93.1,87.5,inactive
ANGPTL1,3,0.163,80.1,89.7,inactive
ANGPTL1,4,-0.33,72.3,57.5,inactive

In a second layout: 7 of the entries above
| target gene | reagent no. | log2 vehicle/camptothecin viability | viability with camptothecin (% of control) | viability without drug (% of control) | Call |
| --- | --- | --- | --- | --- | --- |
| PTPRF | 4 | -0.619 | 91.2 | 59.4 | inactive |
| MPZ | 1 | -0.0347 | 59.6 | 58.1 | inactive |
| MPZ | 2 | -0.0991 | 89.7 | 83.7 | inactive |
| MPZ | 3 | -0.0669 | 101 | 96.6 | inactive |
| MPZ | 4 | 0.169 | 67.1 | 75.5 | inactive |
| TUBB7P | 1 | 0.453 | 47 | 64.3 | inactive |
| TUBB7P | 2 | -0.0952 | 96.5 | 90.4 | inactive |

The listing continues.
target gene,reagent no.,log2 vehicle/camptothecin viability,viability with camptothecin (% of control),viability without drug (% of control),Call
RAB2B,1,0.351,58.1,74.1,inactive
RAB2B,2,0.0493,77.3,79.9,inactive
RAB2B,3,-0.243,91.2,77,inactive
RAB2B,4,-0.00485,32.9,32.8,inactive
STK11,1,-0.228,109,93.5,inactive
STK11,2,0.0184,40.7,41.2,inactive
STK11,3,-0.213,100,86.7,inactive
STK11,4,-0.0237,64.1,63.1,inactive
UBE3B,1,-0.131,107,97.4,inactive
UBE3B,2,-0.82,63.4,35.9,inactive
UBE3B,3,-0.433,61.3,45.4,inactive
UBE3B,4,0.298,65.1,80,inactive
ALDH1L1,1,-0.244,114,96.1,inactive
ALDH1L1,2,0.162,48.4,54.2,inactive
ALDH1L1,3,-0.0303,42,41.2,inactive
ALDH1L1,4,0.0919,85.7,91.3,inactive
FSD2,1,-0.0684,101,96.8,inactive
FSD2,2,-0.0406,84.8,82.4,inactive
FSD2,3,0.0663,84,87.9,inactive
FSD2,4,0.0822,50.5,53.5,inactive
